Results as given in PMC6026745.
No constants are given. Whether binding was seen depends on the method and setting. Some results given as binding are weak or reduced against the parent protein; the word gives no strength.

Target: BTB/POZ domain of human 90K (LGALS3BP, galectin 3 binding protein), residues 124 to 250 (human) (UniProt Q08380)
Experiment: crystal structure; human BTB, tag cleaved and deglycosylated, 6 mg/ml in 10 mM Tris pH 8.0, 100 mM NaCl; hanging drop at 293K, 9% PEG 8000, 0.2 M zinc acetate, 0.1 M imidazole pH 6.8; 1 homodimer per asymmetric unit; both purified

B1: BTB/POZ domain of human 90K (LGALS3BP, galectin 3 binding protein), residues 124 to 250 (domain or fragment, UniProt Q08380 124-250)
chain: TNETRSTHTLDLSRELSEALGQIFDSQRGCDLSISVNVQGEDALGFCGHTVILTANLEAQALWKEPGSNVTMSVDAECVPMVRDLLRYFYSRRIDITLSSVKCFHKLASAYGARQLQGYCASLFAIL
binding: binds
